From the supplement of paper PMC12067093, “Discovery and optimisation of a covalent ligand for TRIM25 and its application to targeted protein ubiquitination” (Chemical Science, 2025) come the findings set out here.

Protein sequences, listed by entry. Tags and fused reporters are not part of them. Lines headed by an entry give the natural chain unless they say otherwise; changes in a name come on top.
UniProt Q16666: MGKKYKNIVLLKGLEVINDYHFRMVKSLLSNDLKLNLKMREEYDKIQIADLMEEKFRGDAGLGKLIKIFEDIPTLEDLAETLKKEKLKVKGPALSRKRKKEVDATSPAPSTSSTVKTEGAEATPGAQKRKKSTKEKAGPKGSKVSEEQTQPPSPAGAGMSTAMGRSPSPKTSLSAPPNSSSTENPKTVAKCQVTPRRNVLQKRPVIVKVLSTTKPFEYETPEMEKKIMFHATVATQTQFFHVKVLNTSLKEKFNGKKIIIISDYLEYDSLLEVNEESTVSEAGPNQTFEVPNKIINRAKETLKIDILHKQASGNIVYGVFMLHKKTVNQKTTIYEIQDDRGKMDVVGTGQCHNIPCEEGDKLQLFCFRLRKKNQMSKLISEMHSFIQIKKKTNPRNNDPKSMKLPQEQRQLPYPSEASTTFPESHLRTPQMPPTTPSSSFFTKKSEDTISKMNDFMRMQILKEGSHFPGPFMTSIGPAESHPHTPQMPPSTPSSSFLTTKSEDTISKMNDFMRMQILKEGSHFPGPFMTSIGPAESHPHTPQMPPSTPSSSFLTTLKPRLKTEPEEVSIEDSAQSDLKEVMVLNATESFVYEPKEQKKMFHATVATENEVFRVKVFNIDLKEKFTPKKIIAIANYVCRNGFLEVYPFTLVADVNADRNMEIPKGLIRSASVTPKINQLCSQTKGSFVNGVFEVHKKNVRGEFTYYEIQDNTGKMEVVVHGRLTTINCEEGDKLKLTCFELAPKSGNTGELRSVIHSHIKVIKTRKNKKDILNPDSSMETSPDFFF
UniProt Q7Z6Z7, whole entry, looked up: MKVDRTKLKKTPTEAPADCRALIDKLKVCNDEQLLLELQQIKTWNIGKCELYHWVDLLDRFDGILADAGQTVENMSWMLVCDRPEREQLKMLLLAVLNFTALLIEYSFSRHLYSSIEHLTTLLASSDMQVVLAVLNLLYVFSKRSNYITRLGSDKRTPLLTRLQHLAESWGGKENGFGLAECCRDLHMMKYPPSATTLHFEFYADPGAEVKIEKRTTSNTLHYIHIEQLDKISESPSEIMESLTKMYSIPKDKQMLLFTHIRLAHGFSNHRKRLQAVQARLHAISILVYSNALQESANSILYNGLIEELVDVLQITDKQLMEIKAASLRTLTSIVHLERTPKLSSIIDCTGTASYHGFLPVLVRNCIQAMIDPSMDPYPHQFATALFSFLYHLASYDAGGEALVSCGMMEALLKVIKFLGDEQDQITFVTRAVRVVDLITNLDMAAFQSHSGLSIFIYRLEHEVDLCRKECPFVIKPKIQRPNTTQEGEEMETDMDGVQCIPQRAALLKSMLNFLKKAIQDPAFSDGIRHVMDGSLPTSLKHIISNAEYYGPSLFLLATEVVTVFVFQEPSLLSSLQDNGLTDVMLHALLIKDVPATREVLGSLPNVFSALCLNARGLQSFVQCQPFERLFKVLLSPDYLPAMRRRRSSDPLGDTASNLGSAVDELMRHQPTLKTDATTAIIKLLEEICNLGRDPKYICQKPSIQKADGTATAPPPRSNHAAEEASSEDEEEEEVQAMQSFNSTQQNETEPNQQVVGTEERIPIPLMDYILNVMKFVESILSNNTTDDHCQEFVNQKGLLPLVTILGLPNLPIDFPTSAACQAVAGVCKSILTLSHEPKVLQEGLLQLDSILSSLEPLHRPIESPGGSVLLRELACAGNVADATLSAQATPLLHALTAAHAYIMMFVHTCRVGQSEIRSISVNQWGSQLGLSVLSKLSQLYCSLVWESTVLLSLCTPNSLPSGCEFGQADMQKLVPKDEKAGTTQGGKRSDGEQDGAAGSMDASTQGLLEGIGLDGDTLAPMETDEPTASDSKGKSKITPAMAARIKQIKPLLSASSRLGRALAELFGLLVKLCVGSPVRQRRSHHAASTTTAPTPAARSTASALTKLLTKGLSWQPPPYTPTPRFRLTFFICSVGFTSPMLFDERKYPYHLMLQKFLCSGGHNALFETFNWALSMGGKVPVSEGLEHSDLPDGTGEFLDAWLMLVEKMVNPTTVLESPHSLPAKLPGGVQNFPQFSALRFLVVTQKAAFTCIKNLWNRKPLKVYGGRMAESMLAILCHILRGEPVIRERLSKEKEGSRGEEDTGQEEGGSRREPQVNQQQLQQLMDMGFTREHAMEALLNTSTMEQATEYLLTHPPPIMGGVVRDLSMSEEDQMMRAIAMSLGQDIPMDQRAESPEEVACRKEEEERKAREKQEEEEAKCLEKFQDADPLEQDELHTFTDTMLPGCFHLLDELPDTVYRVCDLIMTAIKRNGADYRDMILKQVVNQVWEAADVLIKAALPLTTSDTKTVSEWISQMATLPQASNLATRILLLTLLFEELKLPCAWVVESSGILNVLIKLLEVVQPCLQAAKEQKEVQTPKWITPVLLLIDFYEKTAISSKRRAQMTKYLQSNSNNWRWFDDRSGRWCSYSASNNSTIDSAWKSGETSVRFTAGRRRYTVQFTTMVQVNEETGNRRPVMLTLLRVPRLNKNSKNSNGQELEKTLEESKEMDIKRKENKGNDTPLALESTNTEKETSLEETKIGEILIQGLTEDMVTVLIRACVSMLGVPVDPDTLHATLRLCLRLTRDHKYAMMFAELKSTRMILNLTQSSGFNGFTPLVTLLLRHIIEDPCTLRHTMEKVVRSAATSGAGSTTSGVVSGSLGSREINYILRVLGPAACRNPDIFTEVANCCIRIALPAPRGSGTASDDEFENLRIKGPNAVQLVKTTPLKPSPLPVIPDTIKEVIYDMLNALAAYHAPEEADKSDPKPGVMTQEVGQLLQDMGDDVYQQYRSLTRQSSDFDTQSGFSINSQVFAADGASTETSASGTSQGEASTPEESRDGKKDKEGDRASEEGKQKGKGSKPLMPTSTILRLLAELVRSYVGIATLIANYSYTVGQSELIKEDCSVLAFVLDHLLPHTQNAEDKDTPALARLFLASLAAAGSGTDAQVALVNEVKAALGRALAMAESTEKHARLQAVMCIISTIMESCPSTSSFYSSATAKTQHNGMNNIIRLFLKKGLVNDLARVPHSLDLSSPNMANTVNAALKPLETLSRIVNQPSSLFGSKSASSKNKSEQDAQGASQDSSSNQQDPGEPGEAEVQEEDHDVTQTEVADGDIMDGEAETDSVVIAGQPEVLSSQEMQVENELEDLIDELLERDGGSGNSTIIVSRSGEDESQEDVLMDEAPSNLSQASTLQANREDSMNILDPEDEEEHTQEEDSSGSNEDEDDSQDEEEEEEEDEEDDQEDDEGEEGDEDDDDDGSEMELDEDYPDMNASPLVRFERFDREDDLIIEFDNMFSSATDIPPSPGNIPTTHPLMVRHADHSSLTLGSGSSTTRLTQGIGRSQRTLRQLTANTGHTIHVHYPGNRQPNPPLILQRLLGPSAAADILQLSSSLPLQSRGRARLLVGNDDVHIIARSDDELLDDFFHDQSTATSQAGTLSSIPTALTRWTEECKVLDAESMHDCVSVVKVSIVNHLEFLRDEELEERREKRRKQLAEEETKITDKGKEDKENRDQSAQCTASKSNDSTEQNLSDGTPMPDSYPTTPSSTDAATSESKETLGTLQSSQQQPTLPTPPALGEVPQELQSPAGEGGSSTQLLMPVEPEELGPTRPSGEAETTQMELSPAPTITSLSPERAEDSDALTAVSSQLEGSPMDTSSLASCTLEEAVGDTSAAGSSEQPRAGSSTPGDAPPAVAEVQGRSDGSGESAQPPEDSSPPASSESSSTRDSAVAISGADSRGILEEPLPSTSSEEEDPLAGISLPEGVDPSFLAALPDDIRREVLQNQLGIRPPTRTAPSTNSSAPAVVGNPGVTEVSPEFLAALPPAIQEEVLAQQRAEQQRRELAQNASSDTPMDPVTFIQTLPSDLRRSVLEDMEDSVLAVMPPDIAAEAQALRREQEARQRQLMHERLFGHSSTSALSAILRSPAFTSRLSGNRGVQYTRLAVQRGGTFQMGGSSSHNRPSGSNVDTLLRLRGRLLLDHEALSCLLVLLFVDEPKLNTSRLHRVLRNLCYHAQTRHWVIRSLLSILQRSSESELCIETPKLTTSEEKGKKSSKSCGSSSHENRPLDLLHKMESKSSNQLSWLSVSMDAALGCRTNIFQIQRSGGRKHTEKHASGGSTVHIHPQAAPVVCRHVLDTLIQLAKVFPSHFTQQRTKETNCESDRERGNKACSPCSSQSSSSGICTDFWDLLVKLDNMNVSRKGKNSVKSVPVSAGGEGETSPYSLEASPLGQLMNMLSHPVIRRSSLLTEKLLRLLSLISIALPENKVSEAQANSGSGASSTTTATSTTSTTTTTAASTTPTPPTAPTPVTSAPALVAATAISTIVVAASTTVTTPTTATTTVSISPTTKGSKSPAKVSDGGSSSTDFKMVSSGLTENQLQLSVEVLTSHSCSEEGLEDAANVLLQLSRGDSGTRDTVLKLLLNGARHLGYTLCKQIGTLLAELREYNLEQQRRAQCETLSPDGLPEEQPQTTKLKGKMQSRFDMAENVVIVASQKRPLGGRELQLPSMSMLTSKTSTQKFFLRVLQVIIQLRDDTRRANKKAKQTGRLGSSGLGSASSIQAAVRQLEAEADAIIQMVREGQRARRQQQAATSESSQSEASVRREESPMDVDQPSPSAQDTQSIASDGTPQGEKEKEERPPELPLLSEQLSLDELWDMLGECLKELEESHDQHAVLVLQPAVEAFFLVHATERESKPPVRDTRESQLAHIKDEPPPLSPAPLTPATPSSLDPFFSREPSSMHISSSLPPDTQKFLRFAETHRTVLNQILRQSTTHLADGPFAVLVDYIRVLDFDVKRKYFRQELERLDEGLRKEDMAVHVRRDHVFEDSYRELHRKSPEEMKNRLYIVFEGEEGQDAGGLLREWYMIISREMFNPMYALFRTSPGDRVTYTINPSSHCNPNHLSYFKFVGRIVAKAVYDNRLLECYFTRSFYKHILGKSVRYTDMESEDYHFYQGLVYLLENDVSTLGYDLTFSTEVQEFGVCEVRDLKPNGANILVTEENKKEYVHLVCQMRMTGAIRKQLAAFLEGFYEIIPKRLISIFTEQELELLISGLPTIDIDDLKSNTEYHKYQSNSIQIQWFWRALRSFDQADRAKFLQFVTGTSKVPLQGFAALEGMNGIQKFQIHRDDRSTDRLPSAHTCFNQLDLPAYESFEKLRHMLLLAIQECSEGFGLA
UniProt Q27J81, whole entry, looked up: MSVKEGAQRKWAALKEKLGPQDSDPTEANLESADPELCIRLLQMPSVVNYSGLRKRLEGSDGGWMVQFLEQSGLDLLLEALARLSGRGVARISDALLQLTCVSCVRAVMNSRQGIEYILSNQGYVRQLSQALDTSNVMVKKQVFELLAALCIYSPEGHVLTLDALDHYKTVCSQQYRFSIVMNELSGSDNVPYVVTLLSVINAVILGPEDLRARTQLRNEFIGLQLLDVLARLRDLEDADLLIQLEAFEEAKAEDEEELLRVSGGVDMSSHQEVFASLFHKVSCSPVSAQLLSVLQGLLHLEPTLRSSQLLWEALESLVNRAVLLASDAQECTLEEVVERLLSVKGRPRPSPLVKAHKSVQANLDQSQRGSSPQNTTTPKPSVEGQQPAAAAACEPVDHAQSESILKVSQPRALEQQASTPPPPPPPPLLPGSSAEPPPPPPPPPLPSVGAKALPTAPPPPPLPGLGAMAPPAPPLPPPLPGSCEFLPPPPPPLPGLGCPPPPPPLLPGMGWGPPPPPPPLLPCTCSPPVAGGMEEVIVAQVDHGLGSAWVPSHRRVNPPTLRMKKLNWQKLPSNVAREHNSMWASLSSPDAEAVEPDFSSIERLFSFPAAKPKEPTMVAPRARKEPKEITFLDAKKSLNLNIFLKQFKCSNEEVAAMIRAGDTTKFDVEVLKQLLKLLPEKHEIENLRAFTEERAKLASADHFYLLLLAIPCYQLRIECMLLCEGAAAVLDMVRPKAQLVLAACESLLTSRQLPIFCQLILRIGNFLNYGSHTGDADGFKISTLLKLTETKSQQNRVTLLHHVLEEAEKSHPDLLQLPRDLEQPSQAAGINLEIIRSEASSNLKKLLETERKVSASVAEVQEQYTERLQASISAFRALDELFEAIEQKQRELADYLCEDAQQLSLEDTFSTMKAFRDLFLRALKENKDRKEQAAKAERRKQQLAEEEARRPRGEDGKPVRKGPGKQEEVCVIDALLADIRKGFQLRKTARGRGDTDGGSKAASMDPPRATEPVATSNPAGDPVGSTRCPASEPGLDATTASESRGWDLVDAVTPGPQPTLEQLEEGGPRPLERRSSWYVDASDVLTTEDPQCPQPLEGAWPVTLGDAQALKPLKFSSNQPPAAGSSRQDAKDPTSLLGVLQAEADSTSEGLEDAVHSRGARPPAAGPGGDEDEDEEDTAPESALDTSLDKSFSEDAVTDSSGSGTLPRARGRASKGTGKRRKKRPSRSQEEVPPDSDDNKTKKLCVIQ
UniProt Q9H7X7: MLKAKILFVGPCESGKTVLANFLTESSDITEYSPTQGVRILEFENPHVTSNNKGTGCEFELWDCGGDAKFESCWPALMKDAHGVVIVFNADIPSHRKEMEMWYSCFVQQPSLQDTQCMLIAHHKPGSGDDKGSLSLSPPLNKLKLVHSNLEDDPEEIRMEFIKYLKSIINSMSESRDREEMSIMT

Compound in this assay: CC1Cc2ccccc2N1C(=O)C1CCCN(C1)C(=O)CCl (mixture of isomers) [TRIM25 ligand 11 (diastereomer mixture)]
Put plainly: probe-labelled cysteine peptide fold change vs DMSO (competition) (log2 fold change); higher = less target engagement (more negative = stronger competition). As to conditions: THP-1, incubation time: 4 h.

Some of the results follow.
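Note: competitive chemoproteomic profiling in live THP-1 cells with an iodoacetamide desthiobiotin (IA-DTB) probe, comparing probe-labelled peptide intensities in compound-treated cells against DMSO-treated controls.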

Consider “IDE_P14735_257_FHSAYYSSNLMAVCVLGR (UniProt P14735)”, for which the “probe-labelled cysteine peptide fold change” value is, setting by setting: (10 µM) -0.353; (50 µM) -0.375.
On to “IL1RAP_Q9NPH3_332_SYVCHAR (UniProt Q9NPH3)”, for which the “probe-labelled cysteine peptide fold change” value runs as follows: (10 µM) 0.0484; (50 µM) 0.0314.
In the case of “IFI16_Q16666_637_IIAIANYVCR (UniProt Q16666)”, the “probe-labelled cysteine peptide fold change” value by setting is: (10 µM) -0.193; (50 µM) -0.0508.
With “IFI16_Q16666_191_CQVTPR (UniProt Q16666)”, the “probe-labelled cysteine peptide fold change” value was -0.0377 (10 µM) and -0.11 (50 µM).
As to “HUWE1_Q7Z6Z7_624_GLQSFVQCQPFER (UniProt Q7Z6Z7)”, the “probe-labelled cysteine peptide fold change” value reads like this: (10 µM) 0.0504; (50 µM) -0.0208.
As for “IGF2R_P11717_1349_ETSDCSYLFEWR (UniProt P11717)”, the “probe-labelled cysteine peptide fold change” value by setting is: (10 µM) 0.0257; (50 µM) 0.123.
For the target “IGF2R_P11717_174_EVPCYVFDEELR (UniProt P11717)”, the “probe-labelled cysteine peptide fold change” value is, setting by setting: (10 µM) 0.0645; (50 µM) 0.101.
For “IFT122_Q9HBG6_784_AIEICGDHGWVDMLIDIAR (UniProt Q9HBG6)”, the “probe-labelled cysteine peptide fold change” value is 0.194 (10 µM) and -0.133 (50 µM).
The corresponding values for “INF2_Q27J81_971_KGPGKQEEVCVIDALLADIR (UniProt Q27J81)” are -0.103 and -0.196.
The corresponding values for “INPP4A_Q96PE3_540_SLECIIQR (UniProt Q96PE3)” are 0.0194 and 0.0354.
For “HUWE1_Q7Z6Z7_29_VCNDEQLLLELQQIK (UniProt Q7Z6Z7)”, the “probe-labelled cysteine peptide fold change” value is, setting by setting: (10 µM) 0.287; (50 µM) 0.0122.
“IKBKG_Q9Y6K9_131_CQQQMAEDK (UniProt Q9Y6K9)”: the “probe-labelled cysteine peptide fold change” value was -0.164 (10 µM) and -0.134 (50 µM).
In the case of “ILVBL_A1L0T0_315_AAVETLGVPCFLGGMAR (UniProt A1L0T0)”, the “probe-labelled cysteine peptide fold change” value (10 µM) was 0.000564 and the “probe-labelled cysteine peptide fold change” value (50 µM) was -0.123.
Take “INF2_Q27J81_971_QEEVCVIDALLADIRK (UniProt Q27J81)”: the “probe-labelled cysteine peptide fold change” value was 0.0359 (10 µM) and -0.0427 (50 µM).
For “HUS1_O60921_12_IVDGACLNHFTR (UniProt O60921)” the same measures were -0.14 and 0.00282.
On to “ILVBL_A1L0T0_568_EQVPSLGSNVACGLAYTDYHK (UniProt A1L0T0)”, for which the “probe-labelled cysteine peptide fold change” value was 0.0322 (10 µM) and -0.0148 (50 µM).
Take “INPP5A_Q14642_53_PHFMALHCQEFGGK (UniProt Q14642)”: the “probe-labelled cysteine peptide fold change” value was determined as 0.0159 (10 µM) and 0.232 (50 µM).
Take “HUWE1_Q7Z6Z7_467_LEHEVDLCR (UniProt Q7Z6Z7)”: the “probe-labelled cysteine peptide fold change” value is 0.267 (10 µM) and 0.232 (50 µM).
As to “INPP1_P49441_10_ELLCVSEK (UniProt P49441)”, the “probe-labelled cysteine peptide fold change” value was -0.0487 (10 µM) and 0.00513 (50 µM).
With “ILKAP_Q9H0C8_135_KGEREEMQDAHVILNDITEECRPPSSLITR (UniProt Q9H0C8)”, the “probe-labelled cysteine peptide fold change” value (10 µM) was -0.145 and the “probe-labelled cysteine peptide fold change” value (50 µM) is -0.111.
Take “IFT172_Q9UG01_1686_ALPCLITGYPILR (UniProt Q9UG01)”: the “probe-labelled cysteine peptide fold change” value (10 µM) is -0.0633 and the “probe-labelled cysteine peptide fold change” value (50 µM) came out at 0.191.
The corresponding values for “ILVBL_A1L0T0_608_VLHDAQQQCR (UniProt A1L0T0)” are -0.00491 and -0.0121.
On to “IARS2_Q9NSE4_211_WGIMADWNNCYYTFDGK (UniProt Q9NSE4)”, for which the “probe-labelled cysteine peptide fold change” value reads like this: (10 µM) 0.318; (50 µM) 0.229.
For “IKZF1_Q13422_175+178_CHLCNYACR (UniProt Q13422)”, the “probe-labelled cysteine peptide fold change” value reads like this: (10 µM) 0.0391; (50 µM) -0.104.
“ILKAP_Q9H0C8_301_CGVTSVPDIR (UniProt Q9H0C8)”: the “probe-labelled cysteine peptide fold change” value (10 µM) is -0.027 and the “probe-labelled cysteine peptide fold change” value (50 µM) worked out at 0.0391.
Regarding “IFT27_Q9BW83_166_EMENFEAPFHCLAK (UniProt Q9BW83)”, the “probe-labelled cysteine peptide fold change” value was -0.155 (10 µM) and -0.189 (50 µM).
For “IGF2R_P11717_823_KYYINVCRPLNPVPGCNR (UniProt P11717)”, the “probe-labelled cysteine peptide fold change” value is -0.0433 (10 µM) and 0.000829 (50 µM).
Turning to “IDE_P14735_178_FAQFFLCPLFDESCK (UniProt P14735)”, the “probe-labelled cysteine peptide fold change” value is 0.0503 (10 µM) and -0.118 (50 µM).
For ILK_Q13418_8_MDDIFTQCR (UniProt Q13418), the “probe-labelled cysteine peptide fold change” value is -0.161 (10 µM) and -0.0863 (50 µM).
On to “IFRD2_Q12894_409_AVLHSVEGGECEEEIVR (UniProt Q12894)”, for which the “probe-labelled cysteine peptide fold change” value (10 µM) is 0.202 and the “probe-labelled cysteine peptide fold change” value (50 µM) was determined as 0.0889.
“IDH3G_P51553_236_LGDGLFLQCCR (UniProt P51553)”: the “probe-labelled cysteine peptide fold change” value (10 µM) is 0.0357 and the “probe-labelled cysteine peptide fold change” value (50 µM) came out at 0.079.
For “IGF2R_P11717_84_INICGSVDIVQCGPSSAVCMHDLK (UniProt P11717)”, the “probe-labelled cysteine peptide fold change” value reads like this: (10 µM) -0.056; (50 µM) -0.148.
Take “IMPACT_Q9P2X3_284_HINNCAR (UniProt Q9P2X3)”: the “probe-labelled cysteine peptide fold change” value by setting is: (10 µM) -0.0325; (50 µM) -0.492.
With “IKBKG_Q9Y6K9_76_CEELLHFQASQR (UniProt Q9Y6K9)”, the “probe-labelled cysteine peptide fold change” value (10 µM) was 0.15 and the “probe-labelled cysteine peptide fold change” value (50 µM) was -0.0962.
With “IARS2_Q9NSE4_414_GTGLVHTAPAHGMEDYGVASQHNLPMDCLVDEDGVFTDVAGPELQNK (UniProt Q9NSE4)”, the “probe-labelled cysteine peptide fold change” value (10 µM) came out at 0.112 and the “probe-labelled cysteine peptide fold change” value (50 µM) was -0.523.
As for “IARS_P41252_433_NNDLCYWVPELVR (UniProt P41252)”, the “probe-labelled cysteine peptide fold change” value runs as follows: (10 µM) 0.379; (50 µM) 0.188.
In the case of “IFT22_Q9H7X7_12_ILFVGPCESGK (UniProt Q9H7X7)”, the “probe-labelled cysteine peptide fold change” value is, setting by setting: (10 µM) -0.0571; (50 µM) -0.08.
On to “IGF2R_P11717_572_GNIQLSYSDGDDCGHGK (UniProt P11717)”, for which the “probe-labelled cysteine peptide fold change” value (10 µM) was found to be 0.0683 and the “probe-labelled cysteine peptide fold change” value (50 µM) is -0.0345.
In the case of “IDE_P14735_171+178_FAQFFLCPLFDESCK (UniProt P14735)”, the “probe-labelled cysteine peptide fold change” value reads like this: (10 µM) -0.0754; (50 µM) -0.153.
